The values below come from paper PMC10573631.

The chains behind the UniProt entries cited, without tags or fusion partners. Residues count along the entry.
UniProt P30530, residues 26-894: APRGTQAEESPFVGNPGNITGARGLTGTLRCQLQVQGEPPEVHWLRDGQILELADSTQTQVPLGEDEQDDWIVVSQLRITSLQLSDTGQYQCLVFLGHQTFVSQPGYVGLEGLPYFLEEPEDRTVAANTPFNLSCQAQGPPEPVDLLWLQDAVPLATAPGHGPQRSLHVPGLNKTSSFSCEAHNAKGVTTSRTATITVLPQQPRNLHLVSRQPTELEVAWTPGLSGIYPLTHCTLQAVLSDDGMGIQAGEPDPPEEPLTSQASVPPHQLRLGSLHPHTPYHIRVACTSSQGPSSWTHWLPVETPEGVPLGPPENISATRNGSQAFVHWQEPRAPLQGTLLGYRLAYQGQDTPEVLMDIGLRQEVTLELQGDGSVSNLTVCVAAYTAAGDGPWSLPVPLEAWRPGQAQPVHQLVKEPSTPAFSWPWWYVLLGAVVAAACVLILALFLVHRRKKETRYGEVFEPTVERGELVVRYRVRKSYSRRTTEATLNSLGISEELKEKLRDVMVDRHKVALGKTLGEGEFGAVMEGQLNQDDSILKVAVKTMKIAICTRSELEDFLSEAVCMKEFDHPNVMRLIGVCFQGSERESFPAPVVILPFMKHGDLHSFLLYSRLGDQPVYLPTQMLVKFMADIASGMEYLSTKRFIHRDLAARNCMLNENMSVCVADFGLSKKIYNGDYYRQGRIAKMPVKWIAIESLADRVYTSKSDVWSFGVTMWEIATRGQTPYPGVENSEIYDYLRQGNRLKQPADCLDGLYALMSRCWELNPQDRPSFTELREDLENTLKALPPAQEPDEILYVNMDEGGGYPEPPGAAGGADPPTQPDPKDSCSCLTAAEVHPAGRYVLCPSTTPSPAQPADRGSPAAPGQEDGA

Where a chain is given by its changes, count along the chain named. These are yes or no findings as the source states them, for the method shown. Binding seen in cells or lysates may run through a third protein. Some results given as binding are weak or reduced against the parent protein; the word gives no strength. Tags and fused reporters may be left off the sequences shown.

Assay [1] has as its target T1, MIG6-MT1 (Y394F/Y395F)-Flag (human) (UniProt Q9UJM3).
T1 sequence: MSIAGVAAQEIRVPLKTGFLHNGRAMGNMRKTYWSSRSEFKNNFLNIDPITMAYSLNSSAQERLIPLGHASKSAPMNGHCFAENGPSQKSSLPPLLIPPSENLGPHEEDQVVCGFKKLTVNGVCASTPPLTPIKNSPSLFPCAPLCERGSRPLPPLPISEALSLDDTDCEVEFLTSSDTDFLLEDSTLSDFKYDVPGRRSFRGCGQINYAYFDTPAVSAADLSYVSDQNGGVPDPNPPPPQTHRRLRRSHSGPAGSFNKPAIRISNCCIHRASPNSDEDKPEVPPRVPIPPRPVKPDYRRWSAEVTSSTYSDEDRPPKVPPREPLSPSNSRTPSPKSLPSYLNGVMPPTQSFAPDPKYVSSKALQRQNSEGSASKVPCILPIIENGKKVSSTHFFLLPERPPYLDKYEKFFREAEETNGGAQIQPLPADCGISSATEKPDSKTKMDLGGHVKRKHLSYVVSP
The assay can be described thus: co-IP; 293TN cells transfected with AXL and/or EGFR and MIG6-Flag variants, lysates 72 h after transfection; IP with anti-Flag antibody and Protein G Mag Sepharose overnight at 4 C in IP buffer (Tris 50 mM pH 7.4, EDTA 5 mM, NaF 50 mM, Na3VO4 0.1 mM, Triton 1%); Western blot for AXL, EGFR, MIG6. A general note: Immunoblotting shows a protein as a band on a membrane.

In assay [2] the target is T2, MIG6-MT2 (Y310F)-Flag (human) (UniProt Q9UJM3).
T2 sequence: T1 sequence with Y310F, F394Y, F395Y
Described as above.

Take “AXL (pcDNA3-AXL, expressed in 293TN cells) (from UniProt P30530 26-894) (receptor)”: the binding result in assay [1] is recorded as “binds weakly”; in assay [2], “binds”.
